For at least one compound, name, drawing or mass did not settle the structure.
Test system: OCI-AML3 cells
Experiment: Animal model of AML, P15 + anti-leukemic chemotherapeutics
Assay type: in vivo, nude mice (Nu/Nu, BalBC)
Conditions: combination with P15, animal model of AML; FIG. 3
Experimental: The animal model used in this invention was based on the implantation of human tumors in nude mice (Nu/Nu, BalBC). […] After tumor debut (approx. 30 mm^3), treatment was started using the pharmaceutical combination described in this invention. To evaluate the antitumor effect of the pharmaceutical combination, the tumor mass volume was measured and the respective volume was calculated using the formule: V=widght^2×lenght/2.
After tumor debut, the ingredients of the pharmaceutical combination were administered as follow: The P15 peptide in saline solution was administered intraperitoneal at 0.5 mg/kg/day during 5 days. Concomitantly, intraperitoneal injection of cisplatin (FIG. 1A), or cyclophosphamide (FIG. 1B) or Mitomycin (FIG. 1C) were performed at 1 mg/kg/day in the same frequency. The cytostatic drugs are also solved in saline solution. Tumor volume was registered as described above in this invention.

Nc1nc(F)nc2c1ncn2[C@@H]1O[C@H](CO)[C@@H](O)[C@@H]1O [Fludarabine, fludarabine]
interaction with P15, antitumor effect in vivo: great synergistic interaction

— patent publication US9278118B2, “Pharmaceutical combination for the treatment and/or chemosensibilization of refractory tumors to anticancer drugs” (Centro de Ingenieria Genetica Y Biotecnologia, priority 2006, dated 2016)
